Results from patent publication US7655701B2, “Cycloalkylidene-(ortho substituted phenyl)-acetonitriles and their use as odorants” (Givaudan SA, priority 2005, dated 2010).

Assay: Odour description

Row | Structure (SMILES) | Odour description
1 | Cc1ccccc1C(C#N)=C1CCCCC1C (mixture of isomers) [Example 6, (E/Z)-2-(2-methylcyclohexylidene)-2-o-tolylacetonitrile] | balsamic, sweet, cinnamic, plum
2 | Cc1ccccc1C(C#N)=C1CCCCC1 [Example 1, Cyclohexylidene-o-tolyl-acetonitrile] | fruity, rosy, Lychee, Palmarosa, Rosacetol
3 | Cc1ccc(C(C#N)=C2CCCCC2)cc1 [Example 2, Cyclohexylidene-p-tolyl-acetonitrile, reference compound] | floral, rosy, sweet, vanilla
4 | Cc1ccccc1C(C#N)=C1CCCC1 [Example 3, Cyclopentylidene-o-tolyl-acetonitrile] | floral, citrus
5 | Cc1cccc(C(C#N)=C2CCCCC2)c1 [Example 4, Cyclohexylidene-m-tolyl-acetonitrile, reference compound] | floral, citrus
6 | COc1ccccc1C(C#N)=C1CCCCC1 [Example 5, Cyclohexylidene-(2-methoxy-phenyl)-acetonitrile] | floral, rosy, sweet, citronellol
